Literature values as cited in US20080312223A1, “Thiazole And Isothiazole Derivatives That Modulate The Activity Of CDK, GSK And Aurora Kinases” (ASTEX THERAPEUTICS LIMITED, priority 2004, published 2008).
At least one structure is not confirmed: it was looked up by name or label, or the drawing left a doubt.

Tested on: chronic lymphocytic leukaemia
Settings: symptomatic CLL patients, initial therapy; v 17 months with alkylator-based therapies; cited from earlier work

SMILES: Nc1nc(F)nc2c1ncn2[C@@H]1O[C@H](CO)[C@@H](O)[C@@H]1O [fludarabine]
- duration of progression-free survival: 33 months
